# From PMC10733476, “OsDWARF10, transcriptionally repressed by OsSPL3, regulates the nutritional metabolism of polished rice”
# For at least one entry, the source does not settle the construct or the ends of the probe. For part of these data: No signal at the amounts used counts as a negative. Protein sequences can lack the tags named with them. For part of these data: At least one verdict rests on a figure or table, not on a statement of the authors.
# Legend:
# OsSPL3 [1] = target: T1, OsSPL3 (UniProt A2X0Q6); test: competition with a labelled probe; settings: 750 mM NaCl, 25 mM MgCl2, 100 mg/mL BSA, 50% glycerol, 5 mM DTT, recombinant protein, protein details: N-terminal 6xHis (pET28A)
# T1 sequence (looked up, limits assumed): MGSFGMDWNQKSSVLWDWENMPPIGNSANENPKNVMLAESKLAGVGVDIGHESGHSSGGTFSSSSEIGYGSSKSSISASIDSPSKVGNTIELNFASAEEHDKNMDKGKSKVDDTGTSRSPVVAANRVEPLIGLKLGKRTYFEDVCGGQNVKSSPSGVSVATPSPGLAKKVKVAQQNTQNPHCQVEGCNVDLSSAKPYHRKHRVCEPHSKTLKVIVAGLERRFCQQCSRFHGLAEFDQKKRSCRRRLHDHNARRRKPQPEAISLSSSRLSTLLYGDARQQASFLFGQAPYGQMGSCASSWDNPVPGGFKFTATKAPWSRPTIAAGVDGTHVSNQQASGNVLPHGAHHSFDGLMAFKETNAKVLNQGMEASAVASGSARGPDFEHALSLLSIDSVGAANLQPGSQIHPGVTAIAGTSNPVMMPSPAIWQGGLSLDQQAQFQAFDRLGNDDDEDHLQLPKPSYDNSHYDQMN
# OsSPL3 [2] = target: T1, OsSPL3; test: EMSA; settings: 750 mM NaCl, 25 mM MgCl2, 100 mg/mL BSA, 50% glycerol, 5 mM DTT; recombinant protein; protein details: N-terminal 6xHis (pET28A); label: 5' FAM on F strand
sequence,measurement,setting,value
CCACGCCCCACGTAACGTAGCGTACAGTGTACACCTGATTTCGCTCGGTC (double strand) [D10 S2_C],binding result,OsSPL3 [1]; unlabelled competitor against FAM-D10 S2,binds
CTCACACATGCTACTGATGATGAACGAACGGACGTTACGTAGCGCGCGGG (double strand) [D10 S1_M],binding result,OsSPL3 [2],no binding
CTCACACATGCTACTGATGATGTACGTACGGACGTTACGTAGCGCGCGGG (double strand) [D10 S1_C],binding result,OsSPL3 [1]; unlabelled competitor against FAM-D10 S1,binds
